For at least one compound, name, drawing or mass did not settle the structure.
Test system: U251 cell line
Assay: colony formation assay after antiviral drug treatment and irradiation, U251
Assay type: cell-based
Conditions: drug concentrations determined as 100 nM, 200 nM and 30 μM, FIGS. 5 to 7
Protocol: First, after 48 hours of siRNA transduction of Example 2, the cells were collected and 500 with 0 Gy, 1,000 with 2 Gy, 2,000 with 4 Gy, and 4,000 with 6 Gy cells were cultured on a plate according to a radiation dose. After it was checked that the cells were stably attached to a culture dish, radiation was treated with a radiation dose rate of 2.46 Gy per minute by 4 MV X-ray by using a linear accelerator, and the cells were cultured for about 14 days to 23 days until cell colonies were checked with the naked eye. The formed colonies were fixed with 100% methanol and then dyed with 0.5% crystal violet, and surviving fraction was calculated by counting the number of colonies including at least 50 cells. In the surviving fraction, an average of the number of cell colonies in three wells for each radiation dose was shown according to a linear-quadratic model using Kaleidagraph version 3.51 (Synergy Software, Reading, Pa.), and the result was illustrated in FIG. 2.
As the hepatitis anti-C virus drug, simeprevir (Olysio) (Janssen Pharmaceutica), sofosbuvir (sovaldi) (Gilead), and daclatasvir (Daklinza) (Bristol-Myers Squibb) were used. […]
After the determined amount of drug was treated in the brain tumor and breast cancer cell lines, the colony formation assay was performed by the same method as Experimental Example 1, and the result was illustrated in FIGS. 5 to 7.

COC(=O)N[C@H](C(=O)N1CCC[C@H]1c1nc(-c2ccc(-c3ccc(-c4c[nH]c([C@@H]5CCCN5C(=O)[C@@H](NC(=O)OC)C(C)C)n4)cc3)cc2)c[nH]1)C(C)C [daclatasvir]
sensitivity to radiation (colony formation assay): enhanced
